This data set can be described thus: Immobilisation of protein/enzyme onto KRYPTOFIX 221B or […] polymer: protein loading. Particulars: 5 mg protein, KRYPTOFIX 221B 15 mg.

Results on 1 substance are retold here after patent US4532212A, “Process for the dissolution of peptides in non-aqueous and mixed non-aqueous/aqueous systems” (Shell Oil Company, priority 1983, dated 1985).

In the case of “Cytochrome c: Cytochrome c from horse heart (Type III, from Sigma Chemical Co.), 104 residues”, the “mg of protein on support” value is listed as 1.58 mg. Where the note is “g protein adsorbed / g support × 100”, this substance displayed a loading of 10.5.
